Assay in all cases: co-IP
Assay [1] has as its target T1, GFP-WDR41-PIP (WDR41 PQLC2-interacting peptide, 364-373, as a GFP fusion).
T1 sequence: TGFFNMWGFG

The target of assay [2] is T2, WDR41-HA with complete deletion of the 7CD loop (residues 354-393) (UniProt Q9HAD4).
T2 sequence: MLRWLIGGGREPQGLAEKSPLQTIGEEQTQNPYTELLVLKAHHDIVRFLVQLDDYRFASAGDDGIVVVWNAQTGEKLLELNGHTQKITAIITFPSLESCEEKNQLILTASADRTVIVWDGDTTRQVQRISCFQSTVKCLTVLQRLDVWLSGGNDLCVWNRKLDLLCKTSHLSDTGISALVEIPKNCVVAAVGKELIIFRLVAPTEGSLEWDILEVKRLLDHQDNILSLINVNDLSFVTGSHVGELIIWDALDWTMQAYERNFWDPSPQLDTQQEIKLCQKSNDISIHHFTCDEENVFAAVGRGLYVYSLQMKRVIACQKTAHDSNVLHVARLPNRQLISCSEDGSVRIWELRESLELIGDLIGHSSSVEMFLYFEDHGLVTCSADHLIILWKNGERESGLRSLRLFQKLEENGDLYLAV

In assay [3] the target is T3, WDR41-HA with deletion of the first linker sub-region of the 7CD loop (354-360) (UniProt Q9HAD4).
T3 sequence: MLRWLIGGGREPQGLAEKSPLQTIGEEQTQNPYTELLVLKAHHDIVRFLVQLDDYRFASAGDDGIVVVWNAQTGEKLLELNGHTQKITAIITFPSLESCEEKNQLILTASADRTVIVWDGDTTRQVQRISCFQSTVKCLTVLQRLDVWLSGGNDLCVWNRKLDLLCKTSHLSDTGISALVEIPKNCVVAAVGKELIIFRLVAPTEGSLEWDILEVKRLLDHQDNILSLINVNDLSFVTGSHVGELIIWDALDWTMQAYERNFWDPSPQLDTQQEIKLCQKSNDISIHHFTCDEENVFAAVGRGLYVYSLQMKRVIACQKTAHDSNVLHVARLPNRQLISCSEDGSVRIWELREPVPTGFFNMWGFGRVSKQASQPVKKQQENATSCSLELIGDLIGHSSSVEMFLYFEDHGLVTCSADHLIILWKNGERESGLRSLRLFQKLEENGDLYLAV

Assay [4] addresses T4, WDR41-HA with deletion of the second linker sub-region of the 7CD loop (374-393) (UniProt Q9HAD4).
T4 sequence: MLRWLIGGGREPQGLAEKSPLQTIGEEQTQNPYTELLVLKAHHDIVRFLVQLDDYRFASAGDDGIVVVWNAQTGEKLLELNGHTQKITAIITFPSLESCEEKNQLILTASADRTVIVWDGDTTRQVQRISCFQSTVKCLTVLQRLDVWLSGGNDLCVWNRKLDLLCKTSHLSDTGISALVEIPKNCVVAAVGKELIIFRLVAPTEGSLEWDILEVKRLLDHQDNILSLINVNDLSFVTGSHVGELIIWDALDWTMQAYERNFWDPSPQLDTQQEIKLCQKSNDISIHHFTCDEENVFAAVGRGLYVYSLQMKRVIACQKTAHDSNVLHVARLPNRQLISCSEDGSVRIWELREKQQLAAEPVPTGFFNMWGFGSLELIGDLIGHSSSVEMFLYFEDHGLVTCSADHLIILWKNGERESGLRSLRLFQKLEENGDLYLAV

The target of assay [5] is T5, WDR41-HA with deletion of the turn sub-region of the 7CD loop (361-373) (UniProt Q9HAD4).
T5 sequence: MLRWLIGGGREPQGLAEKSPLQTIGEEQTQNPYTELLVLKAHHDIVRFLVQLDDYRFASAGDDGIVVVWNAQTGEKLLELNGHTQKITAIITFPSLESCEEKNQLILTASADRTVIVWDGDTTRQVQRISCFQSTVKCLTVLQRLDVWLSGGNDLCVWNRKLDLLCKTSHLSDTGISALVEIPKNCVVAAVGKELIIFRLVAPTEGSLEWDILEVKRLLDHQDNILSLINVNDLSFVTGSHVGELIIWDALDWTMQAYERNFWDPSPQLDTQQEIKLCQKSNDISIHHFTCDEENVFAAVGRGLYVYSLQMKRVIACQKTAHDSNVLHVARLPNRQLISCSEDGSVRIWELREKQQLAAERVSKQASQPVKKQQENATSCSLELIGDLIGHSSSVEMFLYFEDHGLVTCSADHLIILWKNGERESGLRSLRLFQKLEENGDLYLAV

Assay [6] addresses T6, WDR41-HA with the 7CD loop (residues 354-393) replaced by the flexible linker GGSGGGSG (UniProt Q9HAD4).
T6 sequence: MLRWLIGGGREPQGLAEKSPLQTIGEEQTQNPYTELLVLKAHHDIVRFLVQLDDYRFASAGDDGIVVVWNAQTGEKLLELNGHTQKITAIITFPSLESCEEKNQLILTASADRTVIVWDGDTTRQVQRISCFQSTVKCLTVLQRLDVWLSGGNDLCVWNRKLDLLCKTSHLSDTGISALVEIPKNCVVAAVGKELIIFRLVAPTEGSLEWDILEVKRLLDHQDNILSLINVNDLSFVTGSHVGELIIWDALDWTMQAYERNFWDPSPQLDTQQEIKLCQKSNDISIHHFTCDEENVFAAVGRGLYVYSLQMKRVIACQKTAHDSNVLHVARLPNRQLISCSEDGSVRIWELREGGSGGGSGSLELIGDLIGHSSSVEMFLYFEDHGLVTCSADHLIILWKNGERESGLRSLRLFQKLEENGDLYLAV

The target of assay [7] is T7, WDR41-HA wild type, Q9HAD4.
T7 chain: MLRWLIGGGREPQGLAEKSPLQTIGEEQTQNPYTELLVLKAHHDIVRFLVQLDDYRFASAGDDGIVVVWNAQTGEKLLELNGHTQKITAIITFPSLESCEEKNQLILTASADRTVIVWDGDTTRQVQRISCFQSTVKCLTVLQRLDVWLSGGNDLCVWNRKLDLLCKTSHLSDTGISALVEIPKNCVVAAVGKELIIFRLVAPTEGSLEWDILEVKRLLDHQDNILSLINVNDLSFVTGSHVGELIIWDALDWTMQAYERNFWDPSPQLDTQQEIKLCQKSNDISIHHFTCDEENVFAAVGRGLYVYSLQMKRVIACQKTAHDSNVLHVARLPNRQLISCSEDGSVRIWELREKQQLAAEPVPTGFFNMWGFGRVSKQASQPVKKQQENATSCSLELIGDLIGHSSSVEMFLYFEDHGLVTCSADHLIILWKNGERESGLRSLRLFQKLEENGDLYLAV
To be noted: remark: other sources report otherwise.

Where a chain is given by its changes, count along the chain named. Names may count otherwise. These are yes or no findings as the source states them, for the method shown. In cells and extracts the contact can be indirect. Some results given as binding are weak or reduced against the parent protein; the word gives no strength. Tags and fused reporters may be left off the sequences shown.

B1: PQLC2-FLAG L127/8A-L288/9A (protein, UniProt Q6ZP29 1-291)
chain: MVWKKLGSRNFSSCPSGSIQWIWDVLGECAQDGWDEASVGLGLISILCFAASTFPQFIKAYKTGNMDQALSLWFLLGWIGGDSCNLIGSFLADQLPLQTYTAVYYVLADLVMLTLYFYYKFRTRPSAASAPINSVLLFLMGMACATPLLSAAGPVAAPREAFRGRALLSVESGSKPFTRQEVIGFVIGSISSVLYLLSRLPQIRTNFLRKSTQGISYSLFALVMLGNTLYGLSVLLKNPEEGQSEGSYLLHHLPWLVGSLGVLLLDTIISIQFLVYRRSTAASELEPAAPS
Consider B1, for which the binding result in assay [1] was “binds”.

B2: PQLC2-FLAG P55L-P201L (protein, UniProt Q6ZP29 1-291)
chain: B1 chain with P55L, A127L, A128L, P201L, A288L, A289L
B2: the binding result in assay [1] is “no binding”.

B3: C9orf72 (protein, UniProt Q96LT7 1-481)
chain: MSTLCPPPSPAVAKTEIALSGKSPLLAATFAYWDNILGPRVRHIWAPKTEQVLLSDGEITFLANHTLNGEILRNAESGAIDVKFFVLSEKGVIIVSLIFDGNWNGDRSTYGLSIILPQTELSFYLPLHRVCVDRLTHIIRKGRIWMHKERQENVQKIILEGTERMEDQGQSIIPMLTGEVIPVMELLSSMKSHSVPEEIDIADTVLNDDDIGDSCHEGFLLNAISSHLQTCGCSVVVGSSAEKVNKIVRTLCLFLTPAERKCSRLCEAESSFKYESGLFVQGLLKDSTGSFVLPFRQVMYAPYPTTHIDVDVNTVKQMPPCHEHIYNQRRYMRSELTAFWRATSEEDMAQDTIIYTDESFTPDLNIFQDVLHRDTLVKAFLDQVFQLKPGLSLRSTFLAQFLLVLHRKALTLIKYIEDDTQKGKKPFKSLRNLKIDLDLTAEGDLNIIMALAEKIKPGLHSFIFGRPFYTSVQERDVLMTF
As for B3, the binding result in assay [2], in assay [3], in assay [4], in assay [5] and in assay [6] was “binds” throughout.

B4: C9orf72, Q96LT7 1-481 (protein)
chain: B3 chain
As to B4, the binding result in assay [7] was “binds”.

The values above are taken from doi:10.1101/2020.07.15.204800 (bioRxiv, 2020).
